Data from the supplement of paper PMC5949888.
± gives the standard deviation of the averaged measurements. Most values lie at the floor of the assay. Slopes are relative: functional sequences can read slightly below zero.

Tested on: Saccharomyces cerevisiae PS128 hsf1 delta, HSF1(1-493) fusion
Assay: growth estimate (transactivation domain function in HSF1 fusion, heat-shock survival) (a.u. (slope of normalised read count over time)); higher = stronger growth at 37°C, i.e. more transactivation activity
Settings: library: random library
Method: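 Random 60-nt DNA library encoding peptides of up to 20 aa, fused to the C-terminus of yeast HSF1 residues 1-493 (C-terminal TAD deleted) and expressed from the native HSF1 promoter on a CEN plasmid in hsf1-deleted S. cerevisiae PS128. Cells were selected at 37°C on -trp 5-FOA plates for 0, 2, 4, 6 and 8 days and amplicons were sequenced. Growth estimate is the slope of a robust linear fit of total-sum-normalised read counts (normalised to the first time point) over time, using at least 2 replicates. Sequences are classed functional (TAD activity) above a threshold of -0.13, set from stop-codon control sequences.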

| Substance | growth estimate |
| --- | --- |
| GQSTARKWKGARISIDTYEL | < -0.25 |
| GQSVETGTLRVA | < -0.25 |
| GQTIFEGK | < -0.25 |
| GQYTTSARNEHA | < -0.25 |
| GRAICRSGQLKFCRWGKSLS | < -0.25 |
| GRAKEARMDGSGGPVRAMIR | < -0.25 |
| GRALFNKRHKGVSGSVIEQT | < -0.25 |
| GRCDRLSLGRNLRTKGSLTV | < -0.25 |
| GRCLPRQLLPRDHVQACAGA | < -0.25 |
| GRDR | < -0.25 |
| GRDRLTPEYAYSRKFVGCSA | < -0.25 |
| GRDVGYLSGASVVLASIVTA | < -0.25 |
| GRDWARSMFHIVLPSRPPVP | < -0.25 |
| GRFQ | < -0.25 |
| GRFTALA | < -0.25 |
| GRFYQALLRTHILVWV | < -0.25 |
| GRGAAALEFNNDAPQSAWTV | < -0.25 |
| GRGDSVRLRKLVDASPRGWV | < -0.25 |
| GRGGASSTIFAAIKQY | < -0.25 |
| GRGIGLFRTLNSRVFRLSSG | < -0.25 |
| GRGL | < -0.25 |
| GRGQATGFVTKSPPSYERMS | < -0.25 |
| GRGRTALS | < -0.25 |
| GRGSSRGTAVTQC | < -0.25 |

| Substance | growth estimate |
| --- | --- |
| GRGTSRKLSGEGNSWGPH | < -0.25 |
| GRGVMFKARGC | < -0.25 |
| GRGYSLGVRSRI | < -0.25 |
| GRHVVSRLDSPTIIDVSSCR | < -0.25 |
| GRIKTVATRKFPQG | < -0.25 |
| GRIRLIVYRGKLKHCLRYSH | < -0.25 |
| GRISPSYQSLTLKT | < -0.25 |
| GRKCGERNLSGEASTVQE | < -0.25 |
| GRLCCDSNPKAEVSSE | < -0.25 |
| GRLEIVTSRADRCIIAL | < -0.25 |
| GRLGHVDFACELGGSQAPR | -0.19 |
| GRLGQQRSLGSTHASPFGPG | < -0.25 |
| GRLPILLRYPRG | < -0.25 |
| GRLTVCY | < -0.25 |
| GRMLLGRVLSAFADAQERSW | < -0.25 |
| GRMVREDSWEGCVLRGFASL | < -0.25 |
| GRNHIPIGERQFSLCRITPE | < -0.25 |
| GRNMQDREPAS | < -0.25 |
| GRPSSSKL | < -0.25 |
| GRPVLTINVVPCDRGITRPQ | < -0.25 |
| GRRDYGVPANCDVRQTGASK | < -0.25 |
| GRRIFTPCIVDVDDPVEAVK | < -0.25 |
| GRRQEL | < -0.25 |
| GRRSKRVPQTRGLRKAAFGE | < -0.25 |

Part of the list above, reformatted.
Substance	growth estimate
GRFQ	< -0.25
GRLCCDSNPKAEVSSE	< -0.25
GRLGQQRSLGSTHASPFGPG	< -0.25

Later entries

| Substance | growth estimate |
| --- | --- |
| GRRYLDRYTDRNGSSTS | < -0.25 |
| GRS | < -0.25 |
| GRSD | < -0.25 |
| GRSFGFWGGSVFRPHSCNYK | < -0.25 |
| GRSGVSAPGRA | < -0.25 |
| GRSQRVNS | < -0.25 |
| GRSSF | < -0.25 |
| GRSTVDTSYRLRFSSEIVGH | < -0.25 |
| GRSVMGIIVARAQARS | < -0.25 |
| GRSWHKRVAIRGLSA | < -0.25 |
| GRTCKGYPSSSVLIAELKRA | < -0.25 |
| GRTCYKARRAFYQRRFSGLS | < -0.25 |
| GRTLHGQLDLYFVAC | < -0.25 |
| GRTVT | < -0.25 |
| GRV | -0.211 ± 0.043 |
| GRVEIARGV | < -0.25 |
| GRVIWSLALVIRAVGITKPT | < -0.25 |
| GRVL | -0.248 ± 0.003 |
| GRVQSVCPYFREAGRRP | < -0.25 |
| GRVRTGAYSGILSDTQSRRG | < -0.25 |
| GRVTLVLRTIWTLHESLIAS | < -0.25 |
| GRVTRQDPCDVHLRK | < -0.25 |
| GRVVPVFRYRGHRLLRGYKG | < -0.25 |
| GRWAVIPDYQP | < -0.25 |

Reformatted field by field: part of the list above.
GRGGASSTIFAAIKQY
  growth estimate: < -0.25
GRIRLIVYRGKLKHCLRYSH
  growth estimate: < -0.25
GRLEIVTSRADRCIIAL
  growth estimate: < -0.25
GRSFGFWGGSVFRPHSCNYK
  growth estimate: < -0.25

(continued)

| Substance | growth estimate |
| --- | --- |
| GRWCMVRYGVDQCLSRCHLV | < -0.25 |
| GRWCYSPFSGFRRFHF | < -0.25 |
| GRYDLHDRR | < -0.25 |
| GRYFGQSICPRS | < -0.25 |
| GSAGTRGLGG | < -0.25 |
| GSAPCPRPL | < -0.25 |
| GSASNIGCGEPSYHGIPRCM | < -0.25 |
| GSCVGLYGTPVTSG | < -0.25 |
| GSDDRCAY | < -0.25 |
| GSDLGIINETLLMVLCDAGY | < -0.25 |
| GSDMEADGSLI | < -0.25 |
| GSDWPQGCPPGISYHSGRAT | < -0.25 |
| GSEK | < -0.25 |
| GSETAS | < -0.25 |
| GSETNVINVLHIGQTLY | -0.246 |
| GSEVAR | < -0.25 |
| GSFATGKVTLVNGPVC | < -0.25 |
| GSFGEYTCLVGISQNYLYQS | < -0.25 |
| GSFGPNCHM | < -0.25 |
| GSFKYAALLGSAGIT | < -0.25 |
| GSGGNKTGSNRRPAAAAHIR | < -0.25 |
| GSGKWSLNSWTGFTGLRFPT | < -0.25 |
| GSGLLVRGNKS | < -0.25 |
| GSGLQIWQRLGSAEEEPEYC | 0.0791 |
